Measured values reported in the supplement of paper PMC12282887.
These are raw signals, not scaled to a control.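 For antimicrobials the highest concentration approximated the MIC. Most other compounds topped out at 500 µM, and known inducer-like compounds reached up to 1 mM. Inocula for deletion strains were tenfold smaller, and any well growing below 10% of the overall median was considered non-growing.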

System: Escherichia coli BW25113
Assay: growth (OD600 area under curve, 8 h) (OD600 x h); higher = more growth
Experimental: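 E. coli BW25113 reporter strains (wild type, ΔmarA, ΔsoxS, Δrob, each carrying one of 8 lux reporter plasmids) were grown in 40 µl LB in 384-well plates at 37°C, 800 rpm, with each compound at 4 two-fold concentrations, in biological duplicates. Growth is the baseline-corrected OD600 area under the curve over 8 h (0-8 h WT, 1-9 h deletion strains).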

C[C@H](CCC(=O)O)[C@H]1CC[C@H]2[C@@H]3CC[C@@H]4C[C@H](O)CC[C@]4(C)[C@H]3C[C@H](O)[C@]12C [Deoxycholic acid]
growth
Conditions | reporter plasmid: EVC | reporter plasmid: acrABp | reporter plasmid: marRABp | reporter plasmid: micFp | reporter plasmid: ompFp | reporter plasmid: robp | reporter plasmid: soxSp | reporter plasmid: tolCp
24.5 µg/ml, genetic background: wild type | 3.45 | 3.3 | 3.48 | 3.36 | 3.25 | 3.54 | 3.352 | 3.43
24.5 µg/ml, genetic background: ΔmarA | 3.56 | 3.948 | 3.74 | 3.89 | 3.64 | 3.96 | 3.55 | 3.42
24.5 µg/ml, genetic background: Δrob | 3.28 | 3.1 | 3.43 | 3.41 | 2.94 | 2.94 | 3.34 | 3.52
24.5 µg/ml, genetic background: ΔsoxS | 3.59 | 3.68 | 3.48 | 3.27 | 3.38 | 3.53 | 3.43 | 3.41
49.1 µg/ml, genetic background: wild type | 3.42 | 3.46 | 3.4 | 3.3 | 3.18 | 3.56 | 3.44 | 3.41
49.1 µg/ml, genetic background: ΔmarA | 3.52 | 4.13 | 3.84 | 3.78 | 3.62 | 4.15 | 3.38 | 3.39
49.1 µg/ml, genetic background: Δrob | 3.31 | 3.03 | 3.42 | 3.4 | 2.85 | 2.81 | 3.1 | 3.5
49.1 µg/ml, genetic background: ΔsoxS | 3.55 | 3.43 | 3.39 | 3.218 | 3.45 | 3.16 | 3.28 | 3.43
98.1 µg/ml, genetic background: wild type | 3.555 | 3.42 | 3.44 | 3.34 | 2.96 | 3.53 | 3.36 | 3.43
98.1 µg/ml, genetic background: ΔmarA | 3.93 | 4.31 | 3.77 | 3.85 | 3.67 | 4.1 | 3.61 | 3.625
98.1 µg/ml, genetic background: Δrob | 3.58 | 2.99 | 3.45 | 3.51 | 2.97 | 2.84 | 3.4 | 3.63
98.1 µg/ml, genetic background: ΔsoxS | 3.73 | 3.57 | 3.48 | 3.43 | 3.48 | 3.26 | 3.496 | 3.67
196.3 µg/ml, genetic background: wild type | 3.526 | 3.37 | 3.26 | 3.25 | 2.83 | 3.28 | 3.27 | 3.36
196.3 µg/ml, genetic background: ΔmarA | 3.74 | 3.95 | 3.52 | 3.62 | 3.31 | 4 | 3.49 | 3.45
196.3 µg/ml, genetic background: Δrob | 3.53 | 2.69 | 3.22 | 3.39 | 2.64 | 2.69 | 3.2 | 3.4357
196.3 µg/ml, genetic background: ΔsoxS | 3.63 | 3.311 | 2.89 | 3.2 | 3.1 | 2.71 | 3.327 | 3.53

NCCc1ccc(O)c(O)c1 [Dopamine]
growth
Conditions | reporter plasmid: EVC | reporter plasmid: acrABp | reporter plasmid: marRABp | reporter plasmid: micFp | reporter plasmid: ompFp | reporter plasmid: robp | reporter plasmid: soxSp | reporter plasmid: tolCp
11.9 µg/ml, genetic background: wild type | 2.83 | 2.53 | 3.19 | 2.94 | 2.63 | 2.78 | 2.71 | 2.93
11.9 µg/ml, genetic background: ΔmarA | 3.49 | 4.33 | 3.69 | 3.35 | 3.27 | 3.43 | 2.88 | 3.05
11.9 µg/ml, genetic background: Δrob | 2.48 | 2.88 | 3.3338 | 3.11 | 2.41 | 2.39 | 2.9 | 2.8
11.9 µg/ml, genetic background: ΔsoxS | 2.75 | 2.76 | 2.83 | 2.54 | 2.63 | 2.891 | 2.86 | 2.71
23.7 µg/ml, genetic background: wild type | 2.76 | 2.94 | 3.4 | 2.75 | 2.77 | 2.86 | 2.48 | 2.74
23.7 µg/ml, genetic background: ΔmarA | 3.32 | 3.99 | 3.11 | 3.18 | 2.79 | 3.08 | 2.71 | 2.9
23.7 µg/ml, genetic background: Δrob | 2.5 | 3.25 | 3.32 | 2.95 | 2.11 | 2.47 | 2.66 | 2.59
23.7 µg/ml, genetic background: ΔsoxS | 2.58 | 2.71 | 2.93 | 2.45 | 2.56 | 3.17 | 2.76 | 2.51
47.4 µg/ml, genetic background: wild type | 2.88 | 2.57 | 3.09 | 2.89 | 2.7 | 2.8 | 2.6 | 2.98
47.4 µg/ml, genetic background: ΔmarA | 3.17 | 4.03 | 3.58 | 3.07 | 3.16 | 3.54 | 2.68 | 2.83
47.4 µg/ml, genetic background: Δrob | 2.37 | 2.82 | 2.95 | 2.99 | 2.33 | 2.38 | 2.71 | 2.73
47.4 µg/ml, genetic background: ΔsoxS | 2.58 | 2.7 | 3.03 | 2.38 | 2.63 | 3.04 | 2.95 | 2.84
94.8 µg/ml, genetic background: wild type | 2.66 | 2.57 | 2.85 | 2.36 | 2.62 | 2.91 | 2.37 | 2.61
94.8 µg/ml, genetic background: ΔmarA | 2.83 | 3.52 | 2.62 | 2.501 | 2.01 | 2.78 | 2.2 | 2.54
94.8 µg/ml, genetic background: Δrob | 2.36 | 3.12 | 3.12 | 2.57 | 1.84 | 2.18 | 2.24 | 2.65
94.8 µg/ml, genetic background: ΔsoxS | 2.22 | 2.83 | 2.91 | 1.96 | 2 | 2.7 | 2.41 | 2.53
